Measurements reported in PubChem BioAssay AID1259405 (NCATS, 2018).
Test: 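Mouse-designed siRNAs used to find CHO productivity engineering targets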 (primary screen). Cell system: Chinese hamster CHO-K1 ovary cells with stable secreted eGFP expression. Reagent: single siRNA against mouse genes, 0.8 pmol siRNA per well (2 µl of 400 nM stock). Time to read-out: 3 days. Measurement: 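Percent of the per-plate non-targeting control median for intracellular GFP per well by laser scanning cytometry and for cell viability by ATP luminescence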. Scale: GFP, % of control: higher = more GFP per well, higher productivity; viability (ATP), % of control: higher = more viable cells (more ATP). Active means: 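Called active when intracellular GFP, relative to negative control, is at or above 120%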.
Here is a random part of about 50,000 reagents. In the full data, about 4,000 (8%) are marked active. 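Mouse siRNA library applied to hamster cells; one well for each siRNA.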 The numbers tell different reagents against one gene apart.

Target gene | reagent no. | GFP, % of control | viability (ATP), % of control | Call
Trmt6 (tRNA methyltransferase 6) | 1 | 81 | 84 | inactive
Trmt6 (tRNA methyltransferase 6) | 2 | 62.3 | 77.9 | inactive
Trmt6 (tRNA methyltransferase 6) | 3 | 83.7 | 62.6 | inactive
Cbx4 (chromobox 4) | 1 | 60 | 70.2 | inactive
Cbx4 (chromobox 4) | 2 | 120 | 101 | active
Cbx4 (chromobox 4) | 3 | 50.2 | 53.9 | inactive
Rtn4rl1 (reticulon 4 receptor-like 1) | 1 | 142 | 81.9 | active
Rtn4rl1 (reticulon 4 receptor-like 1) | 2 | 87.8 | 71.3 | inactive
Rtn4rl1 (reticulon 4 receptor-like 1) | 3 | 80.2 | 72.6 | inactive
Mrgprb1 (MAS-related GPR, member B1) | 1 | 71.3 | 69.5 | inactive
Mrgprb1 (MAS-related GPR, member B1) | 2 | 55.4 | 39.8 | inactive
Mrgprb1 (MAS-related GPR, member B1) | 3 | 108 | 135 | inactive
Smg1 | 1 | 133 | 106 | active
Senp1 (SUMO1/sentrin specific peptidase 1) | 1 | 73.4 | 81.4 | inactive
Senp1 (SUMO1/sentrin specific peptidase 1) | 2 | 102 | 74.4 | inactive
Senp1 (SUMO1/sentrin specific peptidase 1) | 3 | 62.5 | 51.1 | inactive
Osbp2 (oxysterol binding protein 2) | 1 | 84.8 | 90.3 | inactive
Osbp2 (oxysterol binding protein 2) | 2 | 72.3 | 56.4 | inactive
Osbp2 (oxysterol binding protein 2) | 3 | 116 | 133 | inactive
Slc35f3 | 1 | 77 | 63.3 | inactive
Slc35f3 | 2 | 97.9 | 82.2 | inactive
Slc35f3 | 3 | 88.6 | 68 | inactive
Tmem161a (transmembrane protein 161A) | 1 | 90.9 | 76.9 | inactive
Tmem161a (transmembrane protein 161A) | 2 | 70.9 | 79.2 | inactive
Tmem161a (transmembrane protein 161A) | 3 | 83 | 88.9 | inactive
Pla2g4a (phospholipase A2, group IVA (cytosolic, calcium-dependent)) | 1 | 66.2 | 78.2 | inactive
Pla2g4a (phospholipase A2, group IVA (cytosolic, calcium-dependent)) | 2 | 63.5 | 57.6 | inactive
Pla2g4a (phospholipase A2, group IVA (cytosolic, calcium-dependent)) | 3 | 95.5 | 107 | inactive
Vmn2r122 (vomeronasal 2, receptor, 122) | 1 | 80.3 | 80.1 | inactive
Vmn2r122 (vomeronasal 2, receptor, 122) | 2 | 104 | 96.1 | inactive
Vmn2r122 (vomeronasal 2, receptor, 122) | 3 | 54.9 | 46.4 | inactive
Toe1 (target of EGR1, member 1 (nuclear)) | 1 | 60.8 | 75.8 | inactive
Toe1 (target of EGR1, member 1 (nuclear)) | 2 | 63.4 | 94.7 | inactive
Toe1 (target of EGR1, member 1 (nuclear)) | 3 | 105 | 109 | inactive
